Assay results published in article PMC10993532.
No constants are given. Whether binding was seen depends on the method and setting. Binding seen in cells or lysates may run through a third protein. Some results given as binding are weak or reduced against the parent protein; the word gives no strength.

Chains of the proteins cited; added tags and fusions are not shown.
UniProt Q8IZT6: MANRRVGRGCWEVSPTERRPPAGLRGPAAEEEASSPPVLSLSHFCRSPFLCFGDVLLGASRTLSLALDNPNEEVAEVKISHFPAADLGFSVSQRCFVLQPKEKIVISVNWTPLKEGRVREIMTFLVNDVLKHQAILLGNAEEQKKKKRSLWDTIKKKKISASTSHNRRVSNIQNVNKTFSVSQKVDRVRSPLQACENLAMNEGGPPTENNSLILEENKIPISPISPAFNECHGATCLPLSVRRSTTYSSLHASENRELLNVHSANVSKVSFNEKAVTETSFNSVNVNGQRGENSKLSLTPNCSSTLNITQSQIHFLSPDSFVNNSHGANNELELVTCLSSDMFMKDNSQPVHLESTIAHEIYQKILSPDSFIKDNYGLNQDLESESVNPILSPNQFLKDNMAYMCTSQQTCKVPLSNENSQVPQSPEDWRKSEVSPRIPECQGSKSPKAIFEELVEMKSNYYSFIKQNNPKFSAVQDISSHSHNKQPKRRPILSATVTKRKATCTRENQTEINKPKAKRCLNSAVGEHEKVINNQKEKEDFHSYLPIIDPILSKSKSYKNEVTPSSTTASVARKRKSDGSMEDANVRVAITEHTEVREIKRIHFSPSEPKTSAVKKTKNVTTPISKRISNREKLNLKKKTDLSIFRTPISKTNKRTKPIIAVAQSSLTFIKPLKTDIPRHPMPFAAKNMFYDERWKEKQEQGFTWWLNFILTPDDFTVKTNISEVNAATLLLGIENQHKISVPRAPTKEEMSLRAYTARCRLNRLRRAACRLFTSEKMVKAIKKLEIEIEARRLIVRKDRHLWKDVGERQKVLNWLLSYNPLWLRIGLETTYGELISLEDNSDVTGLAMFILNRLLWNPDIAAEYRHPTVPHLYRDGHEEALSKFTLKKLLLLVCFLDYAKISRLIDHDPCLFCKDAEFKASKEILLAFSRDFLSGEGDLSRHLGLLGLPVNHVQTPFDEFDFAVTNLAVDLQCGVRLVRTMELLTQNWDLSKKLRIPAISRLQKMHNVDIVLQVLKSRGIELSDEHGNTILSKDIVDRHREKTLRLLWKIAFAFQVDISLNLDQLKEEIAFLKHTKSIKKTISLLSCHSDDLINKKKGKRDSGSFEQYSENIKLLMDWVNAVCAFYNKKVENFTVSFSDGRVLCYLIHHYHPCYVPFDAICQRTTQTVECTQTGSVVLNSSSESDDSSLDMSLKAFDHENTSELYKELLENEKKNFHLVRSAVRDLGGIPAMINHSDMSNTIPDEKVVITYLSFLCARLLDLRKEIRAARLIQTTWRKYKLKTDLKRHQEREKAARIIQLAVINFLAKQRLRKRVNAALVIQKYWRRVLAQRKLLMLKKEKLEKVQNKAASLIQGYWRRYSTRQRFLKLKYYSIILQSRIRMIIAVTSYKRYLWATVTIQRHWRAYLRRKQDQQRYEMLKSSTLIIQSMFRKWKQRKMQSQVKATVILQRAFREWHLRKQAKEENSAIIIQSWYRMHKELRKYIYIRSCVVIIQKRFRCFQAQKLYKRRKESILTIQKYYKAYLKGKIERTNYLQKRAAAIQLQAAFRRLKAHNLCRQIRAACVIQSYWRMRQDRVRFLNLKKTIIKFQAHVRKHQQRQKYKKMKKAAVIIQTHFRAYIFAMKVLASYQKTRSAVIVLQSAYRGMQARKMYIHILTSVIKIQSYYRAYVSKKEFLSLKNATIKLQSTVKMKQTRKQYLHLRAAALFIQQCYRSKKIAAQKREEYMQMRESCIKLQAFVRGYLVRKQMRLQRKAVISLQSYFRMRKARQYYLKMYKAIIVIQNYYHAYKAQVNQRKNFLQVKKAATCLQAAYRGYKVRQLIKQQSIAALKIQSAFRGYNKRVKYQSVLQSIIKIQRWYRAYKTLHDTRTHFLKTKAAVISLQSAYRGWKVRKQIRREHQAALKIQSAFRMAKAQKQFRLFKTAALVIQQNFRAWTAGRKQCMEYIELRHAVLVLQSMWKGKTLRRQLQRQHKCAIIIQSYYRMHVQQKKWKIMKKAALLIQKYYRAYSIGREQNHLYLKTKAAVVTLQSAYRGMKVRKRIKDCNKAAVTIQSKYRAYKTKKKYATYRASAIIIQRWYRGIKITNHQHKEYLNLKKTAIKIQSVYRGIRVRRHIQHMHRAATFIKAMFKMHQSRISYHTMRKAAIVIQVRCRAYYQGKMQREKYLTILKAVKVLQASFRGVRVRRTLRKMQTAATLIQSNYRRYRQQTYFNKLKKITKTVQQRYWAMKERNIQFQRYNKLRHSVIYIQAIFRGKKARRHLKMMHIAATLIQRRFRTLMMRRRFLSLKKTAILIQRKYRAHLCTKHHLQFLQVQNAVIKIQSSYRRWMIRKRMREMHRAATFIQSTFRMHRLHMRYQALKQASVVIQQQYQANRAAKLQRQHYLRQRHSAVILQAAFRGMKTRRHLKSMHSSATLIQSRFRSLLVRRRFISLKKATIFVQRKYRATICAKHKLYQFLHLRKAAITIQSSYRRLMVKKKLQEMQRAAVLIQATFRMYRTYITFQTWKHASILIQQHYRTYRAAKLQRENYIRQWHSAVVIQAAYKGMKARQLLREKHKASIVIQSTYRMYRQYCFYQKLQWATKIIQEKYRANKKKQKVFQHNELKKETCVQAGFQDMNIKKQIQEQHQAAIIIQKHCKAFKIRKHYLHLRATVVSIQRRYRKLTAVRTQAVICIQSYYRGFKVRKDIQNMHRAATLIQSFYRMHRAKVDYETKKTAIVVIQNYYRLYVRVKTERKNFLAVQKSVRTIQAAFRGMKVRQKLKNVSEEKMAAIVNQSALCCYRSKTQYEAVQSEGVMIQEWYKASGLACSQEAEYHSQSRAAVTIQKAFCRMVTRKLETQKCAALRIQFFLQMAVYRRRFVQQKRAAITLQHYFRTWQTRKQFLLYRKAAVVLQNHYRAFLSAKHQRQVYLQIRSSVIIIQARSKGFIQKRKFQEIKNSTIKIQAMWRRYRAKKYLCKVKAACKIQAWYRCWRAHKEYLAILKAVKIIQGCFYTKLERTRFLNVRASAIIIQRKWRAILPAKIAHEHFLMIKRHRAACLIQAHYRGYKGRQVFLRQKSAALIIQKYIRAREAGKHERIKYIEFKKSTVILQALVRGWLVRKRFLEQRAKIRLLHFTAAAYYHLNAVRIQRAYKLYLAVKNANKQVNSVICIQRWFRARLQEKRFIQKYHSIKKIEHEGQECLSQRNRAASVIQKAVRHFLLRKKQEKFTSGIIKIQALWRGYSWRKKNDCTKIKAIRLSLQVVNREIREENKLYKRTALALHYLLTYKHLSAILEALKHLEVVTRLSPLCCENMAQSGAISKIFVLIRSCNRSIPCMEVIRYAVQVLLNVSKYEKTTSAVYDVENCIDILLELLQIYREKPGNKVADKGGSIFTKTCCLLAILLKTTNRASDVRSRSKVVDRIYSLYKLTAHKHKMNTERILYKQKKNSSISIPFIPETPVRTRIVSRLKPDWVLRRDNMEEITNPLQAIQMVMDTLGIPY
UniProt P98175: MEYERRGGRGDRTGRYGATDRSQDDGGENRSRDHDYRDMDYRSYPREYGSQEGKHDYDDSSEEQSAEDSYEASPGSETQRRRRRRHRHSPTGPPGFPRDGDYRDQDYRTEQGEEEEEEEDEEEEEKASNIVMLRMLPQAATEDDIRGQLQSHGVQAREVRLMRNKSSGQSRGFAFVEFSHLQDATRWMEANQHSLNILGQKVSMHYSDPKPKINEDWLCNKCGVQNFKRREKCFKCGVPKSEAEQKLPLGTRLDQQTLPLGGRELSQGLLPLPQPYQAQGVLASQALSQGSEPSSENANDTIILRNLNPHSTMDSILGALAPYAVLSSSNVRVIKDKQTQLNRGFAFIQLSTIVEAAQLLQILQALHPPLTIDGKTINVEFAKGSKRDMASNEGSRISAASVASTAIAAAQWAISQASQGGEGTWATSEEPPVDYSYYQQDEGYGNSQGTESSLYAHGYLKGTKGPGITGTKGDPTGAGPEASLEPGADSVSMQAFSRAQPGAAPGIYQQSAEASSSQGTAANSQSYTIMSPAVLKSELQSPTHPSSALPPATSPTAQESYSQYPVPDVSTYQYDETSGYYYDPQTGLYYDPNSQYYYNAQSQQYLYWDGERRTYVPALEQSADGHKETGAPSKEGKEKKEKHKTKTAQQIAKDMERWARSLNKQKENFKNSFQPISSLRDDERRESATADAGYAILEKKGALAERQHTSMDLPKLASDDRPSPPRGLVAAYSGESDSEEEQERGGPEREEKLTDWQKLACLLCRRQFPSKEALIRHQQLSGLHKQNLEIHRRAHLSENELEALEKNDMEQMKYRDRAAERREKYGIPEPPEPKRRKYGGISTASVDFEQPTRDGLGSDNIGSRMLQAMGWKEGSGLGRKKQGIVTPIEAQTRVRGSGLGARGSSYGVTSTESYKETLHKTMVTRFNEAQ

Tests used:
[1] = biological target: T1, Dishevelled-3 (DVL3) (human (endogenous in CCA cell lines)) (UniProt Q92997); test: co-IP; lysate of CCA cells; antibody on Protein A + G magnetic beads, mixed with lysate at room temperature for 120 min; blot
T1 sequence: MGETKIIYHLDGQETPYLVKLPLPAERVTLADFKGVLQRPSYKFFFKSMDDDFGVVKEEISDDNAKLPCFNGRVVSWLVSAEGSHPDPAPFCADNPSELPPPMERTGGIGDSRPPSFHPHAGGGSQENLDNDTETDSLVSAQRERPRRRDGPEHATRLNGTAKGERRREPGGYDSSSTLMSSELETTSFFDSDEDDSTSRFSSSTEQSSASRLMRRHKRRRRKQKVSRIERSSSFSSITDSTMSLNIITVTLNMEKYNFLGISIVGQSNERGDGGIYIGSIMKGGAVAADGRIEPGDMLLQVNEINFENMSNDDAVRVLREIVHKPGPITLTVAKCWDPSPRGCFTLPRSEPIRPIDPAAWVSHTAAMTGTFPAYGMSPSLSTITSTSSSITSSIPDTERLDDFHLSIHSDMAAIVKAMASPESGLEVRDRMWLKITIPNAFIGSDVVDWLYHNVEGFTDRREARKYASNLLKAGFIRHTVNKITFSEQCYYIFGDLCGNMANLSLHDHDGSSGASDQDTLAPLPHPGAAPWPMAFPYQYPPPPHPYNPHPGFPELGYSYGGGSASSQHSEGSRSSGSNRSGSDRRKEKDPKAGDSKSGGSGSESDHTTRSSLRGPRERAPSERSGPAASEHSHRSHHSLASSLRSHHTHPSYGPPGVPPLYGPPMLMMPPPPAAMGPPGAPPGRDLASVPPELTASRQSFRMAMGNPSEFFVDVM

[2] = biological target: T2, Serine and arginine rich splicing factor 2 (SRSF2) (human (endogenous in QBC939 and RBE)) (UniProt Q01130); test: co-IP; lysates of QBC939 and RBE cells stably overexpressing RBM10^WT or RBM10^C761Y; antibody on Protein A + G magnetic beads, mixed with lysate at room temperature for 120 min; blot
T2 sequence: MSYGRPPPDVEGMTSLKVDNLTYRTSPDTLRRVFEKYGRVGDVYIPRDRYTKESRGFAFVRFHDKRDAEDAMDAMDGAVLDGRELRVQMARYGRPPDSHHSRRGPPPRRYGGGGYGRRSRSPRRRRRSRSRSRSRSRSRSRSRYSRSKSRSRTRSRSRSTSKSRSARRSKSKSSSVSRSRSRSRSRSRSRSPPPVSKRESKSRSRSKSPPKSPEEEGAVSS

binding [1]	binding [2]	Substance
no binding	–	Assembly factor for spindle microtubules (ASPM), isoform ASPM203 (from UniProt Q8IZT6 1-3477)
–	binds	RNA-binding protein 10 (RBM10), wild type (from UniProt P98175 1-930)
